In US11473073B2, “Aminopeptidases for protein hydrolyzates” (DUPONT NUTRITION BIOSCIENCES APS, priority 2015, dated 2022):
Some entries share one result that the patent states for a list of compounds.

B1: TRI032: fungal aminopeptidase type-2 (pepN_2), NCBI XP_003667354 from Myceliophthora thermophila ATCC 42464 (protein)
chain: MQTFGAFLVSFLAASGLAAAGGHGGSSGLGCDSQRPLVSSEKLQSLIKKEDLLAGSQELQDIATAHGGHRAFGSSGHNATVDFLYYTLKALDYYNVTKQPFKEIFSSGTGSLTVDGEDIEAETLTYTPSGSATDKPVVVVANVGCDAADYPAEVAGNIALIKRGTCTFSQKSVNAKAAGAVAAIIYNNAEGKLSGTLGQPFLDYAPVLGITLEAGEALLAKLAGGPVTATLQIDALVEERVTYNVIAETKEGDHSNVLVLGGHTDSVPAGPGINDDGSGTIGMLTVAKALTKFRVKNAVRFAFWSAEEYGLLGSYAYIKSINSSAAELSKIRAYLNFDMIASPNYIYGIYDGDGNAFNLTGPAGSDVIERNFENFFKRKHTPSVPTEFSGRSDYAAFIENGIPSGGLFTGAEVLKTEREAELFGGRAGVAYDVNYHQAGDTVDNLALDAFLLNTKAIADSVATYALSFDGLPRVDGKKRRWDAHRARMLKRSAGSHGHAHLHSGPCGGGASI
modifications: Synthetic peptide with leader sequence
B2: TRI035: fungal aminopeptidase type-2 (pepN_2), NCBI XP_001273779 from Aspergillus clavatus NRRL 1 (protein)
chain: MQTFGAFLVSFLAASGLAAANAPGGPGGHGRKLPVNPKTFPNEIRLKDLLHGSQKLEDFAYAYPERNRVFGGQAHLDTVNYLYRELKKTGYYDVYKQPQVHQWTRADQSLTLGGDSIQASTMTYSPSVNVTAPLSLVSKLGCAEGDYSADVKGKIALVSRGECSFAQKSVLSAKAGAVATIVYNNVDGSLAGTLGGATSELGPYSPIIGITLAAGQDLVARLQAAPTEVSLWIDSKVENRTTYNVIAQTKGGDPNNVVALGGHTDSVENGPGINDDGSGVISNLVVAKALTRYSVKNAVRFCFWTAEEFGLLGSNYYVDNLSPAELAKIRLYLNFDMIASPNYALMIYDGDGSAFNLTGPPGSAQIESLFENYYKSIKQGFVPTAFDGRSDYEGFILKGIPAGGVFTGAESLKTEEQARLFGGQAGVALDANYHAKGDNMTNLNHKAFLINSRATAFAVATYANNLSSIPPRNATVVKRESMKWTKREEPHTHGADTGCFASRVKE
modifications: Synthetic peptide with leader sequence

Tested on: peptide TPAAAR (peptide library XPAAAR)
Assay: Hydrolysis of peptide with proline in position 2, LC-MS
Format: biochemical
Conditions: peptide library 1 mg/mL, aminopeptidase 1 ug/mL, CPB-Buffer, 55° C.; FIG. 10
Description: The peptide library XPAAAR (1 mg/mL) (SEQ ID NO:133) was incubated with 1 ug/mL of the aminopeptidase in 3×20 mM CPB-Buffer (20 mM Citric acid, 20 mM Phosphate, 20 mM Boric acid) at 55° C. 50 μL aliquots were stopped with 50 ul 5% TFA at the indicated time points and subjected to LC-MS analysis.
Capillary LC-MS/MS analyses were performed using an Agilent 1100 LC system (Agilent Technologies) interfaced to a LTQ Orbitrap Classic hybrid mass spectrometer (Thermo Scientific, Bremen, Germany). Samples were loaded onto a 15 cm Phenomenex Jupiter 4μ Proteo 90A, C4 analytical column. Separation was performed at a flow rate of 16 μL/min using a 10 min gradient of 0-40% Solvent B H2O/CH3CN/HCOOH (50/950/0.65 v/v/v) into the IONMAX® ion source (Thermo Scientific, San Jose). […] The peptide masses were measured by the Orbitrap (MS scans were obtained with a resolution of 60 000 at m/z 400), and up to 2 of the most intense peptide m/z were selected and subjected to fragmentation using CID in the linear ion trap (LTQ). […]
Label free quantification: The RAW files were accessed with the program Skyline 2.6.0.7176 (MacLean, B., et al., supra) which uses the MS1 intensities to build chromatograms (Schilling, B., et al., supra). […] Peptide sequences of the substrate as well as cleavage products were typed into Skyline and intensities were calculated in each sample. […]

Row | Molecule | incubation time to hydrolyze TPAAAR to less than half the concentration
1 | B1 | ≤ 2 h
2 | B2 | ≤ 2 h
